Values from PubChem BioAssay AID652272 (Drosophila RNAi Screening Center, 2013)

Test: 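Genome-wide knock-down search for components of Hedgehog signalling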 (primary screen)
System: Drosophila clone 8 (Cl8) cells
Knock-down reagent: long dsRNA against Drosophila genes
Measured: 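Plate reader light from a firefly reporter under a ptc promoter fragment that responds to Hedgehog, with Renilla light as transfection reference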
Scale: firefly Hh reporter signal: higher = more ptc reporter light; Renilla reference signal: higher = more Renilla control light
Hit rule: 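Called a hit if the two-replicate mean z-score lies below -2 or above +3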
Calls: active = hit: reporter lowered or raised; inactive = not a hit
In all, the deposit lists about 21,000 reagents; shown is a random part of those with a known target gene and a result. In the full data, 503 (2.4%) were called active. 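Raw plate light values, not normalised; calls rest on replicate z-scores that were not deposited; hits include reporter decreases as well as increases.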 A plus sign joins genes that one reagent is predicted to hit. The record does not give: the amount of reagent, the time to read-out.

What did the screen give for CG17855 [DRSC02638]?
firefly Hh reporter signal, replicate 1: 1.06e5; firefly Hh reporter signal, replicate 2: 46154; Renilla reference signal, replicate 1: 3217; Renilla reference signal, replicate 2: 5185; Call: inactive

For CG15221 [DRSC19659], what was measured?
firefly Hh reporter signal, replicate 1: 68613; firefly Hh reporter signal, replicate 2: 2.51e5; Renilla reference signal, replicate 1: 2212; Renilla reference signal, replicate 2: 9393; Call: inactive

With CG3847 [DRSC17444], what does the deposit list?
firefly Hh reporter signal, replicate 1: 5.43e5; firefly Hh reporter signal, replicate 2: 1.80e5; Renilla reference signal, replicate 1: 30477; Renilla reference signal, replicate 2: 3709; Call: inactive

Which result is listed for CG3847 [DRSC18327]?
firefly Hh reporter signal, replicate 1: 74069; firefly Hh reporter signal, replicate 2: 60860; Renilla reference signal, replicate 1: 2035; Renilla reference signal, replicate 2: 1651; Call: inactive

Which result is listed for pins [DRSC17043]?
firefly Hh reporter signal, replicate 1: 93527; firefly Hh reporter signal, replicate 2: 70832; Renilla reference signal, replicate 1: 2256; Renilla reference signal, replicate 2: 1924; Call: inactive

With CG31528 [DRSC12003], what was measured?
firefly Hh reporter signal, replicate 1: 2.81e5; Renilla reference signal, replicate 1: 5973; Call: inactive

What is on record for Uck [DRSC13661]?
firefly Hh reporter signal, replicate 1: 50690; firefly Hh reporter signal, replicate 2: 2.16e5; Renilla reference signal, replicate 1: 12086; Renilla reference signal, replicate 2: 4922; Call: inactive

With Uck [DRSC16028], what does the deposit list?
firefly Hh reporter signal, replicate 1: 5.11e5; firefly Hh reporter signal, replicate 2: 74720; Renilla reference signal, replicate 1: 25803; Renilla reference signal, replicate 2: 2716; Call: inactive

With pre-mod(mdg4)-W + pre-mod(mdg4)-Y + mod(mdg4) + 3 more [DRSC16328], how do the results read?
firefly Hh reporter signal, replicate 1: 5.03e5; firefly Hh reporter signal, replicate 2: 2.23e5; Renilla reference signal, replicate 1: 20534; Renilla reference signal, replicate 2: 5686; Call: inactive

With Larp7 [DRSC18798], how do the results read?
firefly Hh reporter signal, replicate 1: 65226; firefly Hh reporter signal, replicate 2: 1.70e5; Renilla reference signal, replicate 1: 2533; Renilla reference signal, replicate 2: 6500; Call: inactive

With CG15498 [DRSC15040], what was measured?
firefly Hh reporter signal, replicate 1: 7.69e5; firefly Hh reporter signal, replicate 2: 1.56e5; Renilla reference signal, replicate 1: 41979; Renilla reference signal, replicate 2: 3031; Call: inactive

How did the screen score CG4770 [DRSC15639]?
firefly Hh reporter signal, replicate 1: 5.99e5; firefly Hh reporter signal, replicate 2: 1.05e5; Renilla reference signal, replicate 1: 33148; Renilla reference signal, replicate 2: 2995; Call: inactive

Which result is listed for CG14835 [DRSC10205]?
firefly Hh reporter signal, replicate 1: 64215; firefly Hh reporter signal, replicate 2: 39898; Renilla reference signal, replicate 1: 8311; Renilla reference signal, replicate 2: 2835; Call: inactive

For CG7912 [DRSC16343], how do the results read?
firefly Hh reporter signal, replicate 1: 1.13e5; firefly Hh reporter signal, replicate 2: 1.21e5; Renilla reference signal, replicate 1: 4288; Renilla reference signal, replicate 2: 3714; Call: inactive

How did the screen score sxe2 [DRSC15692]?
firefly Hh reporter signal, replicate 1: 1.27e5; firefly Hh reporter signal, replicate 2: 66763; Renilla reference signal, replicate 1: 4844; Renilla reference signal, replicate 2: 3075; Call: inactive

Laid out differently: 4 of the entries above.
{"target":"CG4770","amplicon":"DRSC15639","firefly Hh reporter signal, replicate 1":5.99e5,"firefly Hh reporter signal, replicate 2":1.05e5,"Renilla reference signal, replicate 1":33148,"Renilla reference signal, replicate 2":2995,"Call":"inactive"}
{"target":"CG14835","amplicon":"DRSC10205","firefly Hh reporter signal, replicate 1":64215,"firefly Hh reporter signal, replicate 2":39898,"Renilla reference signal, replicate 1":8311,"Renilla reference signal, replicate 2":2835,"Call":"inactive"}
{"target":"CG7912","amplicon":"DRSC16343","firefly Hh reporter signal, replicate 1":1.13e5,"firefly Hh reporter signal, replicate 2":1.21e5,"Renilla reference signal, replicate 1":4288,"Renilla reference signal, replicate 2":3714,"Call":"inactive"}
{"target":"sxe2","amplicon":"DRSC15692","firefly Hh reporter signal, replicate 1":1.27e5,"firefly Hh reporter signal, replicate 2":66763,"Renilla reference signal, replicate 1":4844,"Renilla reference signal, replicate 2":3075,"Call":"inactive"}

Additional records follow:
For fng [DRSC11455], how do the results read?
firefly Hh reporter signal, replicate 1: 6.93e5; firefly Hh reporter signal, replicate 2: 2.10e5; firefly Hh reporter signal, replicate 3: 98072; Renilla reference signal, replicate 1: 4439; Renilla reference signal, replicate 2: 4480; Call: inactive

For fng [DRSC11887], what was measured?
firefly Hh reporter signal, replicate 1: 62632; firefly Hh reporter signal, replicate 2: 54298; Renilla reference signal, replicate 1: 2282; Renilla reference signal, replicate 2: 2352; Call: inactive

How did the screen score scat [DRSC02722]?
firefly Hh reporter signal, replicate 1: 63932; firefly Hh reporter signal, replicate 2: 47024; Renilla reference signal, replicate 1: 2684; Renilla reference signal, replicate 2: 1959; Call: inactive

How did the screen score CR31700 [DRSC03682]?
firefly Hh reporter signal, replicate 1: 1.58e5; firefly Hh reporter signal, replicate 2: 2.87e5; Renilla reference signal, replicate 1: 4359; Renilla reference signal, replicate 2: 12820; Call: inactive

With Rm62 [DRSC12365], what does the deposit list?
firefly Hh reporter signal, replicate 1: 1.25e5; firefly Hh reporter signal, replicate 2: 90533; Renilla reference signal, replicate 1: 2881; Renilla reference signal, replicate 2: 1861; Call: active

What is on record for SkpA [DRSC18833]?
firefly Hh reporter signal, replicate 1: 1.57e5; firefly Hh reporter signal, replicate 2: 1.27e5; Renilla reference signal, replicate 1: 2360; Renilla reference signal, replicate 2: 2617; Call: inactive

For Rpn1 [DRSC11274], how do the results read?
firefly Hh reporter signal, replicate 1: 25378; firefly Hh reporter signal, replicate 2: 39955; Renilla reference signal, replicate 1: 1803; Renilla reference signal, replicate 2: 2243; Call: active

Which result is listed for Or30a [DRSC03385]?
firefly Hh reporter signal, replicate 1: 88502; firefly Hh reporter signal, replicate 2: 68619; Renilla reference signal, replicate 1: 2442; Renilla reference signal, replicate 2: 5733; Call: inactive

What is on record for CG7739 [DRSC10910]?
firefly Hh reporter signal, replicate 1: 1.16e5; Renilla reference signal, replicate 1: 905; Renilla reference signal, replicate 2: 4036; Call: inactive

How did the screen score sowi [DRSC12558]?
firefly Hh reporter signal, replicate 1: 70320; firefly Hh reporter signal, replicate 2: 1.13e5; Renilla reference signal, replicate 1: 2469; Renilla reference signal, replicate 2: 3124; Call: inactive

For M7BP [DRSC05053], how do the results read?
firefly Hh reporter signal, replicate 1: 89812; firefly Hh reporter signal, replicate 2: 2.13e5; Renilla reference signal, replicate 1: 2352; Renilla reference signal, replicate 2: 8843; Call: inactive

With M7BP [DRSC05054], how do the results read?
firefly Hh reporter signal, replicate 1: 1.24e5; firefly Hh reporter signal, replicate 2: 2.58e5; Renilla reference signal, replicate 1: 3696; Renilla reference signal, replicate 2: 9655; Call: inactive

For M7BP [DRSC05932], how do the results read?
firefly Hh reporter signal, replicate 1: 94818; firefly Hh reporter signal, replicate 2: 53189; Renilla reference signal, replicate 1: 3745; Renilla reference signal, replicate 2: 1864; Call: inactive

Which result is listed for M7BP [DRSC06701]?
firefly Hh reporter signal, replicate 1: 93403; firefly Hh reporter signal, replicate 2: 56227; Renilla reference signal, replicate 1: 2336; Renilla reference signal, replicate 2: 4177; Call: inactive

What did the screen give for M7BP [DRSC06816]?
firefly Hh reporter signal, replicate 1: 1.13e5; firefly Hh reporter signal, replicate 2: 73226; Renilla reference signal, replicate 1: 3018; Renilla reference signal, replicate 2: 5834; Call: inactive
